Measured values published in publication PMC13626733, “Molecular basis of high-torque transmission of the Vibrio polar flagellar motor” (Protein & Cell, 2026).
No constants are given. Whether binding was seen depends on the method and setting. Some entries that bind do so weakly or less than the wild type.

Target: T1, FliF (Vibrio alginolyticus (endogenous in strain KK148 ΔflgL)) (UniProt Q75N27)
T1 sequence: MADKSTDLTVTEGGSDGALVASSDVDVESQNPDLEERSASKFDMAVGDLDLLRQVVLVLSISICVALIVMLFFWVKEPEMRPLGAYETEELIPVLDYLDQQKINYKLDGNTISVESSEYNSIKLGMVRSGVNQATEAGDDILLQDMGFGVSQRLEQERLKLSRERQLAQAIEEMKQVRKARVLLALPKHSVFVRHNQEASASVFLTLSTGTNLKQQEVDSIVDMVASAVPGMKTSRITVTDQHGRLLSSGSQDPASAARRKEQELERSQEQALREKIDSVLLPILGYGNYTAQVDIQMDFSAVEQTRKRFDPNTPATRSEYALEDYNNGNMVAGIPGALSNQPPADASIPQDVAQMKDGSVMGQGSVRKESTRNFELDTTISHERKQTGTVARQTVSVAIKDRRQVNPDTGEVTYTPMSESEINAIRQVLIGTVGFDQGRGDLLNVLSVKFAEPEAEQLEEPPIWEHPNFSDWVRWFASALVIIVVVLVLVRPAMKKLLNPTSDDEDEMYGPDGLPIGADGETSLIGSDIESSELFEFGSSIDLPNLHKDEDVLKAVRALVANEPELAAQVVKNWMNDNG
Assay: cryo-EM structure; polar flagellar motor-hook complex purified as a whole from V. alginolyticus KK148 ΔflgL; local refinements of the LPHT ring, hook, rod, export apparatus and MS ring; LPHT ring particles also obtained by disassembling the complex at reduced salt; both purified

B1: FlgC (protein, UniProt A0A0G9LZH2 1-137)
chain: MSLFNVFNVTGSAMSAESVRLNTTSSNLANADSVSSSAKDTYKARHAVFGAELSNAMRGGDTVPVKVMGIVESDKPLSAEYNPDHPLANEEGYIYKPNVNVMEEMANMISASRAYQTNVQVADSSKQMLLRTLQMGQ
binding: binds
